Measured values reported in article PMC1635724.
No constants are given. Whether binding was seen depends on the method and setting. A result given as binding can be weak or reduced; the word gives no strength. Sequences can lack the tags named with a protein.

Biological target: T1, 6His-PfJ (4.1R binding region of Plasmodium falciparum erythrocyte binding antigen-181, aa 945-1097) (P. falciparum) (UniProt Q8I2B4)
T1 sequence: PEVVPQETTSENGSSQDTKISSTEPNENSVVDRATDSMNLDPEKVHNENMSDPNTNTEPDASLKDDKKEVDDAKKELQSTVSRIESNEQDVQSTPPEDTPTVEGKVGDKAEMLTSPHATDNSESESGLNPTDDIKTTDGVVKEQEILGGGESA
Experiment: far-Western, overlay or dot blot; ~5 μg of GST, GST-4.1R domains and 6His-PfJ spotted on nitrocellulose, blocked with 5% BSA in TBS pH 7.5, overlaid with 0.5-1 μg purified 4.1R or GST-4.1R domain for 2 hrs, fixed with 0.5% formaldehyde, detected with rabbit anti-4.1R antibody; both purified

native human erythrocyte membrane protein 4.1 (4.1R)
binding: binds
